This passage reports binding results from US20150133367A1.

Chains of the proteins cited; added tags and fusions are not shown. Residues count along the entry.
UniProt P07711, residues 114-333: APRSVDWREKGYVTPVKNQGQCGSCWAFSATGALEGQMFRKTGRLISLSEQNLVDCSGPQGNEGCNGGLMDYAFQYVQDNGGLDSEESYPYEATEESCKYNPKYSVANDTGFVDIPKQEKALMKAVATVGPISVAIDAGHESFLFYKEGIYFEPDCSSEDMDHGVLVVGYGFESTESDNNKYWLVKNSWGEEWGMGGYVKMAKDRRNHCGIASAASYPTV
UniProt P25774, residues 115-331: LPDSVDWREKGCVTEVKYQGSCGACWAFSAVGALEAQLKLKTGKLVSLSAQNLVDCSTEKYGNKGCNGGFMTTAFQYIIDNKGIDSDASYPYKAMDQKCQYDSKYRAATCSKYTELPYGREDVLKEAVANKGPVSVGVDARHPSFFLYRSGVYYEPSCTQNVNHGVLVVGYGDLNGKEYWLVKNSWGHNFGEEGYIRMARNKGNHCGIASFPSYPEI

First the molecules themselves.
T1: Cathepsin K (UniProt P43235)
T1 sequence (looked up): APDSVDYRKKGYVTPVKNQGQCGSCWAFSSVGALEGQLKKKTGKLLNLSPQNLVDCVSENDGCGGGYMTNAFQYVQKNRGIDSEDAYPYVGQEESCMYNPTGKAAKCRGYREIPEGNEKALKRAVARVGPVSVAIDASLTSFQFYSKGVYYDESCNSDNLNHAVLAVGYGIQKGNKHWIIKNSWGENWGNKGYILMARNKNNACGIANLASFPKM

No constants are given. Whether binding was seen depends on the method and setting. Some entries that bind do so weakly or less than the wild type.

One experiment concerns the target T1, Cathepsin K. As to the kind of experiment: enzyme inhibition assay.
With SCESVCKPWGP (Cys2 and Cys6 (i,i+4) linked by alpha,alpha'-meta-xylylene) [… (SEQ ID NO:50)], the binding result was “binds”.

In the next experiment the target is Cathepsin L (UniProt P07711). As to the kind of experiment: enzyme inhibition assay.
Regarding TSEEVCSLMCS (Cys6 and Cys10 (i,i+4) linked by alpha,alpha'-meta-xylylene) [… (SEQ ID NO:16)], the binding result is on record as “binds”.
As to TSEEWCSLMCS (Cys6 and Cys10 (i,i+4) linked by alpha,alpha'-meta-xylylene) [… (SEQ ID NO:21)], the binding entry was “binds”.
Consider TSEWVCSLMCS (Cys6 and Cys10 (i,i+4) linked by alpha,alpha'-meta-xylylene) [… (SEQ ID NO:20)], for which the binding result is recorded as “binds”.
Still for that read-out and setting: then TWEEVCSLMCS (Cys6 and Cys10 (i,i+4) linked by alpha,alpha'-meta-xylylene) [… (SEQ ID NO:18)], with “binds”; and WSEEVCSLMCS (Cys6 and Cys10 (i,i+4) linked by alpha,alpha'-meta-xylylene) [… (SEQ ID NO:17)], with “binds”.

Another experiment concerns the target Cathepsin S (UniProt P25774). Nature of the experiment: enzyme inhibition assay.
For TWEWVCSLMCS (Cys6 and Cys10 (i,i+4) linked by alpha,alpha'-meta-xylylene) [… (SEQ ID NO:23)], the binding result was “binds”.
On to TSEEVCSLMCS (Cys6 and Cys10 (i,i+4) linked by alpha,alpha'-meta-xylylene) [… (SEQ ID NO:16)], for which the binding entry is “binds”.
Still for that read-out and setting: as for TSEEWCSLMCS (Cys6 and Cys10 (i,i+4) linked by alpha,alpha'-meta-xylylene) [… (SEQ ID NO:21)], the entry is “binds”; as for TSEWVCSLMCS (Cys6 and Cys10 (i,i+4) linked by alpha,alpha'-meta-xylylene) [… (SEQ ID NO:20)], “binds”.
On to WWEWVCSLMCS (Cys6 and Cys10 (i,i+4) linked by alpha,alpha'-meta-xylylene) [… (SEQ ID NO:25)], for which the binding result is recorded as “binds”.
Still for that read-out and setting: as for TWEEVCSLMCS (Cys6 and Cys10 (i,i+4) linked by alpha,alpha'-meta-xylylene) [… (SEQ ID NO:18)], the entry is “binds”.
Same read-out and setting: then WSEEVCSLMCS (Cys6 and Cys10 (i,i+4) linked by alpha,alpha'-meta-xylylene) [… (SEQ ID NO:17)], with “binds”.
